Reference: PubChem BioAssay AID1259405 (NCATS, 2018)
Screen: 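Mouse-designed siRNAs used to find CHO productivity engineering targets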 (primary screen). System: Chinese hamster CHO-K1 ovary cells with stable secreted eGFP expression. Reagent: single siRNA against mouse genes, 0.8 pmol siRNA per well (2 µl of 400 nM stock). Duration: 3 days. Measured: 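Per-well intracellular GFP measured by laser scanning cytometry, plus viability from ATP luminescence, each relative to plate median of non-targeting control wells, in %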. Scale: GFP, % of control: higher = more GFP per well, higher productivity; viability (ATP), % of control: higher = more viable cells (more ATP). Rule for the call: 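a knock-down is called active if GFP reaches 120% or more of non-targeting control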.
The deposit covers about 50,000 reagents; shown is a part drawn at random. In the full data, about 4,000 (8%) were called active. 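Mouse siRNA library applied to hamster cells; one well for each siRNA.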 The numbers tell different reagents against one gene apart. Reagent sequences are not shown.

For Sh3bgrl #1, what was measured?
GFP, % of control: 114; viability (ATP), % of control: 115; Outcome: inactive

How did the screen score Sh3bgrl #2?
GFP, % of control: 86.3; viability (ATP), % of control: 69.2; Outcome: inactive

With Sh3bgrl #3, what was measured?
GFP, % of control: 80.1; viability (ATP), % of control: 82.8; Outcome: inactive

With Cadm1 #1, how do the results read?
GFP, % of control: 144; viability (ATP), % of control: 105; Outcome: active

Which result is listed for Cadm1 #2?
GFP, % of control: 52.8; viability (ATP), % of control: 61.3; Outcome: inactive

How did the screen score Cadm1 #3?
GFP, % of control: 84.8; viability (ATP), % of control: 74.8; Outcome: inactive

With Cdc45 #1, what does the deposit list?
GFP, % of control: 92.8; viability (ATP), % of control: 94.9; Outcome: inactive

With Cdc45 #2, how do the results read?
GFP, % of control: 67.5; viability (ATP), % of control: 57.2; Outcome: inactive

What did the screen give for Cdc45 #3?
GFP, % of control: 56.5; viability (ATP), % of control: 58.1; Outcome: inactive

What did the screen give for Cmtm7 #1?
GFP, % of control: 107; viability (ATP), % of control: 91.4; Outcome: inactive

Which result is listed for Cmtm7 #2?
GFP, % of control: 87.9; viability (ATP), % of control: 78.2; Outcome: inactive

How did the screen score Cmtm7 #3?
GFP, % of control: 102; viability (ATP), % of control: 96; Outcome: inactive

What did the screen give for Fis1 #1?
GFP, % of control: 68.7; viability (ATP), % of control: 62.3; Outcome: inactive

For Fis1 #2, what does the deposit list?
GFP, % of control: 96.9; viability (ATP), % of control: 109; Outcome: inactive

What is on record for Fis1 #3?
GFP, % of control: 113; viability (ATP), % of control: 91.2; Outcome: inactive

What did the screen give for Capza2 #1?
GFP, % of control: 51.6; viability (ATP), % of control: 53.1; Outcome: inactive

Which result is listed for Capza2 #2?
GFP, % of control: 63.6; viability (ATP), % of control: 65; Outcome: inactive

For Capza2 #3, how do the results read?
GFP, % of control: 51.6; viability (ATP), % of control: 71.1; Outcome: inactive

What is on record for Tnn #1?
GFP, % of control: 107; viability (ATP), % of control: 87.5; Outcome: inactive

Which result is listed for Tnn #2?
GFP, % of control: 119; viability (ATP), % of control: 122; Outcome: inactive

With Tnn #3, what does the deposit list?
GFP, % of control: 91.9; viability (ATP), % of control: 83.8; Outcome: inactive

For Bhlha15 #1, how do the results read?
GFP, % of control: 65.3; viability (ATP), % of control: 87.3; Outcome: inactive

For Bhlha15 #2, what does the deposit list?
GFP, % of control: 122; viability (ATP), % of control: 78.2; Outcome: active

Which result is listed for Bhlha15 #3?
GFP, % of control: 98.2; viability (ATP), % of control: 101; Outcome: inactive

With Nme3, what does the deposit list?
GFP, % of control: 78.8; viability (ATP), % of control: 70.5; Outcome: inactive

What did the screen give for Marchf3 #1?
GFP, % of control: 60.3; viability (ATP), % of control: 78; Outcome: inactive

Which result is listed for Marchf3 #2?
GFP, % of control: 133; viability (ATP), % of control: 84.5; Outcome: active

How did the screen score Marchf3 #3?
GFP, % of control: 123; viability (ATP), % of control: 105; Outcome: active

With Or5ak20 #1, what was measured?
GFP, % of control: 58.1; viability (ATP), % of control: 28.1; Outcome: inactive

Which result is listed for Or5ak20 #2?
GFP, % of control: 72.3; viability (ATP), % of control: 89.4; Outcome: inactive

How did the screen score Or5ak20 #3?
GFP, % of control: 44.8; viability (ATP), % of control: 71; Outcome: inactive

What is on record for Trp53rkb #1?
GFP, % of control: 153; viability (ATP), % of control: 95; Outcome: active

For Trp53rkb #2, how do the results read?
GFP, % of control: 69.8; viability (ATP), % of control: 86.2; Outcome: inactive

Which result is listed for Trp53rkb #3?
GFP, % of control: 78.5; viability (ATP), % of control: 85.2; Outcome: inactive

What is on record for Tdrd12 #1?
GFP, % of control: 72.2; viability (ATP), % of control: 47.4; Outcome: inactive

For Tdrd12 #2, what does the deposit list?
GFP, % of control: 71.8; viability (ATP), % of control: 68.2; Outcome: inactive

What did the screen give for Tdrd12 #3?
GFP, % of control: 156; viability (ATP), % of control: 105; Outcome: active

With P4ha1 #1, what does the deposit list?
GFP, % of control: 71.9; viability (ATP), % of control: 89.1; Outcome: inactive

With P4ha1 #2, what was measured?
GFP, % of control: 65.1; viability (ATP), % of control: 65.7; Outcome: inactive

With P4ha1 #3, what does the deposit list?
GFP, % of control: 100; viability (ATP), % of control: 96.7; Outcome: inactive

3 entries from above in another layout.
gene	reagent no.	GFP, % of control	viability (ATP), % of control	Outcome
Trp53rkb	2	69.8	86.2	inactive
Trp53rkb	3	78.5	85.2	inactive
Tdrd12	1	72.2	47.4	inactive
